Patent US7691877B2, “Pharmaceuticals” (priority 2006, dated 2010)
At least one compound was matched to its structure with a doubt left.

System: HCV replicon containing cells
Assay: Direct response of HCV replicon containing cells to TLR agonists
Assay type: cell-based, human
Details: applied directly to replicon cells, without PBL conditioned medium

CCOCc1nc2c(N)nc3ccccc3c2n1CC(C)(C)O [Resiquimod]
direct response of HCV replicon containing cells to the TLR agonist: do not respond directly
